In the supplement of paper PMC8728848:
The list shows a part of the results.

Assays:
Test in all cases: glycan array binding signal (z-score within array); higher = stronger binding
Conditions in all cases: glycan notation: IUPAC condensed, linker removed
[1] = target: Gal(b1-4)GlcNAc(b1-2)Man(a1-3)[Gal(b1-4)GlcNAc(b1-2)Man(a1-6)]Man(b1-4)GlcNAc(b1-4)GlcNAc
Procedure, shortened: (§1)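 Glycan array data came from 3228 arrays in the Consortium for Functional Glycomics database, and only arrays with an available protein sequence were kept. Glycan names were put into IUPAC-condensed notation, and columns mapping to the same glycan were averaged. The binding signal is a within-array Z-score, averaged across arrays of one protein sequence run at different concentrations or buffers and across linkers. A negative Z-score can be read as non-binding.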

[2] = target: Gal(b1-4)GlcNAc(b1-2)Man(a1-3)[Gal(b1-4)GlcNAc(b1-2)Man(a1-6)]Man(b1-4)GlcNAc(b1-4)[Fuc(a1-6)]GlcNAc
Procedure, shortened: as §1

[3] = target: Gal(b1-4)GlcNAc(b1-2)Man(a1-3)[Gal(b1-4)GlcNAc(b1-2)][GlcNAc(b1-4)]Man(b1-4)GlcNAc(b1-4)GlcNAc
Procedure, shortened: as §1

[4] = target: Gal(b1-4)GlcNAc(b1-2)Man(a1-3)[GlcNAc(b1-2)Man(a1-6)]Man(b1-4)GlcNAc(b1-4)GlcNAc
Procedure, shortened: as §1

[5] = target: Gal(b1-4)GlcNAc(b1-2)Man(a1-3)[Man(a1-6)]Man(b1-4)GlcNAc(b1-4)GlcNAc
Procedure, shortened: as §1

[6] = target: Gal(b1-4)GlcNAc(b1-2)Man(a1-6)Man(b1-4)GlcNAc(b1-4)GlcNAc
Procedure, shortened: as §1

[7] = target: Gal(b1-4)GlcNAc(b1-2)Man(a1-6)[GlcNAc(b1-2)Man(a1-3)]Man(b1-4)GlcNAc(b1-4)GlcNAc
Procedure, shortened: as §1

[8] = target: Gal(b1-4)GlcNAc(b1-2)Man(a1-6)[Man(a1-3)]Man(b1-4)GlcNAc(b1-4)GlcNAc
Procedure, shortened: as §1

[9] = target: Gal(b1-4)GlcNAc(b1-2)[Gal(b1-4)GlcNAc(b1-4)]Man(a1-3)[Gal(b1-4)GlcNAc(b1-2)Man(a1-6)]Man(b1-4)GlcNAc(b1-4)GlcNAc
Procedure, shortened: as §1

[10] = target: Gal(b1-4)GlcNAc(b1-2)[Gal(b1-4)GlcNAc(b1-4)]Man(a1-3)[Gal(b1-4)GlcNAc(b1-2)[Gal(b1-4)GlcNAc(b1-6)]Man(a1-6)]Man(b1-4)GlcNAc(b1-4)GlcNAc
Procedure, shortened: as §1

[11] = target: Gal(b1-4)GlcNAc(b1-2)[Gal(b1-4)GlcNAc(b1-4)]Man(a1-3)[GlcNAc(b1-4)][Gal(b1-4)GlcNAc(b1-2)Man(a1-6)]Man(b1-4)GlcNAc(b1-4)GlcNAc
Procedure, shortened: as §1

[12] = target: Gal(b1-4)GlcNAc(b1-2)[Gal(b1-4)GlcNAc(b1-4)]Man(a1-3)[GlcNAc(b1-4)][Gal(b1-4)GlcNAc(b1-2)[Gal(b1-4)GlcNAc(b1-6)]Man(a1-6)]Man(b1-4)GlcNAc(b1-4)GlcNAc
Procedure, shortened: as §1

[13] = target: Gal(b1-4)GlcNAc(b1-2)[Gal(b1-4)GlcNAc(b1-6)]Man(a1-6)[Gal(b1-4)GlcNAc(b1-2)Man(a1-3)]Man(b1-4)GlcNAc(b1-4)GlcNAc
Procedure, shortened: as §1

[14] = target: Gal(b1-4)GlcNAc(b1-2)[Gal(b1-4)GlcNAc(b1-6)]Man(a1-6)[GlcNAc(b1-4)][Gal(b1-4)GlcNAc(b1-2)Man(a1-3)]Man(b1-4)GlcNAc(b1-4)GlcNAc
Procedure, shortened: as §1

[15] = target: Gal(b1-4)GlcNAc(b1-3)Gal(b1-3)GlcNAc
Procedure, shortened: as §1

[16] = target: Gal(b1-4)GlcNAc(b1-3)Gal(b1-4)Glc
Procedure, shortened: as §1

[17] = target: Gal(b1-4)GlcNAc(b1-3)Gal(b1-4)GlcNAc
Procedure, shortened: as §1

[18] = target: Gal(b1-4)GlcNAc(b1-3)Gal(b1-4)GlcNAc(b1-3)Gal(b1-4)GlcNAc
Procedure, shortened: as §1

[19] = target: Gal(b1-4)GlcNAc(b1-3)Gal(b1-4)[Fuc(a1-3)GlcNAc(b1-6)]Gal(b1-4)Glc
Procedure, shortened: as §1

[20] = target: Gal(b1-4)GlcNAc(b1-3)Gal(b1-4)[Fuc(a1-3)]GlcNAc(b1-3)Gal(b1-4)[Fuc(a1-3)]GlcNAc
Procedure, shortened: as §1

[21] = target: Gal(b1-4)GlcNAc(b1-3)GalNAc
Procedure, shortened: as §1

[22] = target: Gal(b1-4)GlcNAc(b1-3)[Gal(b1-4)GlcNAc(b1-6)]Gal(b1-4)GlcNAc
Procedure, shortened: as §1

[23] = target: Gal(b1-4)GlcNAc(b1-3)[Gal(b1-4)GlcNAc(b1-6)]GalNAc
Procedure, shortened: as §1

[24] = target: Gal(b1-4)GlcNAc(b1-3)[GlcNAc(b1-6)]Gal(b1-4)GlcNAc
Procedure, shortened: as §1

[25] = target: Gal(b1-4)GlcNAc(b1-6)Gal(b1-4)GlcNAc
Procedure, shortened: as §1

[26] = target: Gal(b1-4)GlcNAc(b1-6)GalNAc
Procedure, shortened: as §1

[27] = target: Gal(b1-4)GlcNAc(b1-6)[Gal(b1-3)]GalNAc
Procedure, shortened: as §1

Gal(b1-6)Gal = target: Gal(b1-6)Gal
Procedure, shortened: as §1

Gal3S(b1-3)GalNAc = target: Gal3S(b1-3)GalNAc
Procedure, shortened: as §1

Gal3S(b1-3)GlcNAc = target: Gal3S(b1-3)GlcNAc
Procedure, shortened: as §1

B1: RetS (Pseudomonas aeruginosa), Q9HUV7 (protein)
chain: MVRLRIAIGLLVSFLLLLLGPMSPAVADDAGVSSVPLQTTATTPSANQNWRLLRDESAQLRIADVLQRKEQFRPLAKRSFIFPASPQAVWLQVQLPAQKVPSWLWIFAPRVQYLDYYLVQDGQLVRDQHTGESRPFQERPLPSRSYLFSLPVDGKPMTLYVRMTSNHPLMAWFDQIDEAGLVGLEKPAYAFGMLLGGMLLLLMYNLIRFAYSRSASSLWLAAVHAALAVCAAANLGLVAFWLPGLKFNQSLTADLGALGAAVSLLWFACSFFRGTAESRLNRLLQGEALLILAVGAIIAFTQQLWFSWLIYLLVILSSLSVPLIAAWHWYRGYQPARLIVAGMIVFNAGFMVFLPVLFGTKQLDPGWLVLGVFSFATLAGLVLSVSLTERQRLIQQLNLQQRTSEAAHTAELQTKAEFLAKISHEIRTPMNGVLGMTELLLGTPLSAKQRDYVQTIHSAGNELLTLINEILDISKLESGQIELDEVQFDLNALIEDCLDIFRVKAEQQRIELISFTQPQVPRVIGGDPTRLRQVVLSLLDNAFKQTEEGEILLVVALDDQGETPRLRIAVQDSGHPFDAKEREALLTAELHSGDFLSASKLGSHLGLIIARQLVRLMGGEFGIQSGSSQGTTLSLTLPLDPQQLENPTADLDGPLQGARLLVVDDNETCRKVLVQQCSGWGLNVSAVSSGKEALAQLRTKAHLREYFDVVLLDQDMPGMTGMQLAAKIKEDPNLNHDILLIMLTGISNAPSKIIARNAGIKRILAKPVAGYTLKATLADELAQRGVSGVTNYLQPAKEAQAPSLPSDFRILVAEDNSISTKVIRGMLNKLNLQPDTASNGQEALSAMKATQYDLVLMDCEMPVLDGFSATEQLRAWEAHEQRPHTPVVALTAHILSEHKERARLVGMDGHMAKPVELSQLRELIAYWVGERDRRRQGDALPS
[1]
  glycan array binding signal (z-score): -0.891
[2]
  glycan array binding signal (z-score): 1.97
[3]
  glycan array binding signal (z-score): 1.38
[4]
  glycan array binding signal (z-score): 2.37
[5]
  glycan array binding signal (z-score): -0.317
[6]
  glycan array binding signal (z-score): -0.932
[7]
  glycan array binding signal (z-score): 0.441
[8]
  glycan array binding signal (z-score): -0.39
[9]
  glycan array binding signal (z-score): -0.305
[10]
  glycan array binding signal (z-score): 0.39
[11]
  glycan array binding signal (z-score): 0.172
[12]
  glycan array binding signal (z-score): 0.46
[13]
  glycan array binding signal (z-score): 1.43
[14]
  glycan array binding signal (z-score): -2.35
[15]
  glycan array binding signal (z-score): 0.908
[16]
  glycan array binding signal (z-score): -0.391
[17]
  glycan array binding signal (z-score): -1.4
[18]
  glycan array binding signal (z-score): -0.266
[19]
  glycan array binding signal (z-score): -0.73
[20]
  glycan array binding signal (z-score): -0.725
[21]
  glycan array binding signal (z-score): -0.104
[22]
  glycan array binding signal (z-score): -1.17
[23]
  glycan array binding signal (z-score): -0.009
[24]
  glycan array binding signal (z-score): -0.037
[25]
  glycan array binding signal (z-score): 0.147
[26]
  glycan array binding signal (z-score): -0.198
[27]
  glycan array binding signal (z-score): 0
Gal(b1-6)Gal
  glycan array binding signal (z-score): 0.844
Gal3S(b1-3)GalNAc
  glycan array binding signal (z-score): 0.755
Gal3S(b1-3)GlcNAc
  glycan array binding signal (z-score): -0.199
